# Assay results as given in the supplement of paper PMC11732987, “Enantioselective OTUD7B fragment discovery through chemoproteomics screening and high-throughput optimisation” (Communications Chemistry, 2025).
# By UniProt entry, the sequences of proteins in these tests, tags left out. Where a name states a change or a piece, a line headed by the entry shows the natural chain unless it says otherwise.
# UniProt P42695: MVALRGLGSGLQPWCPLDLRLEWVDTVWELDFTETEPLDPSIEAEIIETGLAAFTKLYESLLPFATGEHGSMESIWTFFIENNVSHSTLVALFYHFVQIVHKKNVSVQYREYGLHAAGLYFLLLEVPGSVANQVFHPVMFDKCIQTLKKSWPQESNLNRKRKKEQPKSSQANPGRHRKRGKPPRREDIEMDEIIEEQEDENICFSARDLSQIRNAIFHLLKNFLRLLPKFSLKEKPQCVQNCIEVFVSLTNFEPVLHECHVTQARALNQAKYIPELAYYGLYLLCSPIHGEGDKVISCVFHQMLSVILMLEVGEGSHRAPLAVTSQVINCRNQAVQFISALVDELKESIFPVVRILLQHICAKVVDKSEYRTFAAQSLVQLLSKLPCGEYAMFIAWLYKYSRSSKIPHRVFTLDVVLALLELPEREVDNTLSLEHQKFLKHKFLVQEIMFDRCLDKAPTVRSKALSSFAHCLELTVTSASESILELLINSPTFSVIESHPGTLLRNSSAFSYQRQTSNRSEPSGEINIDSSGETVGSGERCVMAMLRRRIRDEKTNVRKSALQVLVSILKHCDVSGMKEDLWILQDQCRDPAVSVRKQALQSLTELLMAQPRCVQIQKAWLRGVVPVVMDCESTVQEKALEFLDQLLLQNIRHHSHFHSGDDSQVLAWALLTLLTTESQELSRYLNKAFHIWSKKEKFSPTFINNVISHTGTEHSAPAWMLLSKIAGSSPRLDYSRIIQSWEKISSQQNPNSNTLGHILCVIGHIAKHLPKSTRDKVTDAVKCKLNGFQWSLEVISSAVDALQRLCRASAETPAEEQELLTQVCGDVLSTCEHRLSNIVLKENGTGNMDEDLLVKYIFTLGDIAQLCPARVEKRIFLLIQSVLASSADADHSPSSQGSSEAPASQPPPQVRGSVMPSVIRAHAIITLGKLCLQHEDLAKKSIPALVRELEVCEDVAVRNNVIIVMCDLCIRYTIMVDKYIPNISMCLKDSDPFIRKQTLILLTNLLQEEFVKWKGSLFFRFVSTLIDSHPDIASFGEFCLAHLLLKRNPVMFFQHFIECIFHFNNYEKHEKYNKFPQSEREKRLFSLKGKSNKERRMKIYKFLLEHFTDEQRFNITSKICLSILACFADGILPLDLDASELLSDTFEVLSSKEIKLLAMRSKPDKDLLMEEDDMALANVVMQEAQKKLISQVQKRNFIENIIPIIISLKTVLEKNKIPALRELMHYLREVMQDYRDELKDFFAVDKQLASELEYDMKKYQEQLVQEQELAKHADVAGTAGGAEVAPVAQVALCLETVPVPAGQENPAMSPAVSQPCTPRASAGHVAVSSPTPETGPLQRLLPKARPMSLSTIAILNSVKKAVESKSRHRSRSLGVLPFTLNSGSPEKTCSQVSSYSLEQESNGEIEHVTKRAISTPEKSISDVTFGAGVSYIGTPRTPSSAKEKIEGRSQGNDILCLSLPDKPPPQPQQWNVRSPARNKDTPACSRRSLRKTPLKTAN
# UniProt Q86X76: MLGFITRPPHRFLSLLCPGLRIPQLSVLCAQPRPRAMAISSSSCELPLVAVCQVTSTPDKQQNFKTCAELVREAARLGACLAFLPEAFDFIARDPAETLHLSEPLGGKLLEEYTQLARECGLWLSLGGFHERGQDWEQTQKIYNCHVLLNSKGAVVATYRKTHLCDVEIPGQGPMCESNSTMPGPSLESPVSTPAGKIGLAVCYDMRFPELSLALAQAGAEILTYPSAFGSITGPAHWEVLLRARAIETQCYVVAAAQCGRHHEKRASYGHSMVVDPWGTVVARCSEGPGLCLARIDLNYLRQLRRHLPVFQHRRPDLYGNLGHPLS
# UniProt Q8NCW5: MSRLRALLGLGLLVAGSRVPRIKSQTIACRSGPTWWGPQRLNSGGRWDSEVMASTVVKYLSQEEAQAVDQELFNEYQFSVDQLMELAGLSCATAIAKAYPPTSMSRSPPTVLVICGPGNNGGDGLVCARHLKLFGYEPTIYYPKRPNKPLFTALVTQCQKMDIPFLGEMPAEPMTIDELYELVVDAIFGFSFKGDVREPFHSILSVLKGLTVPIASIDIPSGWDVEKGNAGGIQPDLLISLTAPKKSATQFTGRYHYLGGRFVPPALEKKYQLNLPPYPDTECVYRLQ
# UniProt Q9UBB6: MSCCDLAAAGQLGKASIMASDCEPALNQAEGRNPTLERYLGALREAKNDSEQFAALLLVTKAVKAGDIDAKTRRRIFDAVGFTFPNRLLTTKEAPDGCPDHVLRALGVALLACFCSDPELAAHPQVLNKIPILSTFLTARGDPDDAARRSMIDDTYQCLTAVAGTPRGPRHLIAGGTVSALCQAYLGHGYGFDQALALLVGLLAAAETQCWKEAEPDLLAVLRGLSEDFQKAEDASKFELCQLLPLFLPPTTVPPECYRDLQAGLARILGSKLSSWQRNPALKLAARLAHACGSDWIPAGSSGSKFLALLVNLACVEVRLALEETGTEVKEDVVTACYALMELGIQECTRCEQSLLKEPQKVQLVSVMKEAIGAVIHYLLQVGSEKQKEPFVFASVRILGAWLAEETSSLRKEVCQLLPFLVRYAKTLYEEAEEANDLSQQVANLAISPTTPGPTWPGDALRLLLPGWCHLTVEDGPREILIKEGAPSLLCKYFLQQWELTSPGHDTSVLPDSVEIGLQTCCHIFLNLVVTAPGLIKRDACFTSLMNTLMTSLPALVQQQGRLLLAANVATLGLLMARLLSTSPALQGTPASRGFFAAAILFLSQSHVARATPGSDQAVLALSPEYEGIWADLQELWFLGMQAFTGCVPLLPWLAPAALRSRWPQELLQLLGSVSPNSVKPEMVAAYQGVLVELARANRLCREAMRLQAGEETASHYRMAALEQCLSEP
# UniProt Q09161: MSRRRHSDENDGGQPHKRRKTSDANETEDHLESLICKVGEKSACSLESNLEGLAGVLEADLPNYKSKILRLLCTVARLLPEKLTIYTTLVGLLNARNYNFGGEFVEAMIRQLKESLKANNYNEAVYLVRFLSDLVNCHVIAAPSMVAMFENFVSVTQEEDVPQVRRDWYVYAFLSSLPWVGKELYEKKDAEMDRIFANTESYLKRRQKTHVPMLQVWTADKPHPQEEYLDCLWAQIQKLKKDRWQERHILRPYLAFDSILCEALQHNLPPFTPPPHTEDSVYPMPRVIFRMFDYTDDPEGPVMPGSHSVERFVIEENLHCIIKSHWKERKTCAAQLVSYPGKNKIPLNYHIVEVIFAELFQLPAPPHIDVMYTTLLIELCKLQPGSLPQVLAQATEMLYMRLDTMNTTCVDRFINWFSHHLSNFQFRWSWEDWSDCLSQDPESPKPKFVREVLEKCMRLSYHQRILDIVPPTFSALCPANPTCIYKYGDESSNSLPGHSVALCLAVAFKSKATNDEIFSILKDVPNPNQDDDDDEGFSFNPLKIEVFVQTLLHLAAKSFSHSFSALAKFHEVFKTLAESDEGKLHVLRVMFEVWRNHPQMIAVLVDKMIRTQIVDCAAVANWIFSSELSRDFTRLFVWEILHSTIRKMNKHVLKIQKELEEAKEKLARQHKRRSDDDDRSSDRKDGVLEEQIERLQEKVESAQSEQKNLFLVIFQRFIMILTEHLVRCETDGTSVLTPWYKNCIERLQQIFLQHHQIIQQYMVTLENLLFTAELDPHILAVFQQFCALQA
# UniProt Q9BYT8, whole entry, looked up: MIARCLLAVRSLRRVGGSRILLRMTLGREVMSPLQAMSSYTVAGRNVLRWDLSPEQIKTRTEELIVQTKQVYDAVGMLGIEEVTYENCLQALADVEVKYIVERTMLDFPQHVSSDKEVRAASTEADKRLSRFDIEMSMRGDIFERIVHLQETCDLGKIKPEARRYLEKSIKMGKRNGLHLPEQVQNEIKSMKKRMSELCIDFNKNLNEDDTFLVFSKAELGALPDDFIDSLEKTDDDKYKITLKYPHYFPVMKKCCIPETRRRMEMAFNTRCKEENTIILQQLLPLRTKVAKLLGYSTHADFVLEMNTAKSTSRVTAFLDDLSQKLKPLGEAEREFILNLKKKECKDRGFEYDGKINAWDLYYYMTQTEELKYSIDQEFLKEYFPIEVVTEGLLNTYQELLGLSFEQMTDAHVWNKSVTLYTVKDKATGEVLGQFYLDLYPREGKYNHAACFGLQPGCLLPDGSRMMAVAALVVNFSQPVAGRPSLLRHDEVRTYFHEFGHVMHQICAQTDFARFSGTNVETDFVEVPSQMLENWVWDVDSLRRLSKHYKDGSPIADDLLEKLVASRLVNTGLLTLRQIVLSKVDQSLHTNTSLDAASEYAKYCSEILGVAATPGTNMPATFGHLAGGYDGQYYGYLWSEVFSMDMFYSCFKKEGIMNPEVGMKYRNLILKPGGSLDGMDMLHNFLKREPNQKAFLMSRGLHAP
# UniProt Q12986: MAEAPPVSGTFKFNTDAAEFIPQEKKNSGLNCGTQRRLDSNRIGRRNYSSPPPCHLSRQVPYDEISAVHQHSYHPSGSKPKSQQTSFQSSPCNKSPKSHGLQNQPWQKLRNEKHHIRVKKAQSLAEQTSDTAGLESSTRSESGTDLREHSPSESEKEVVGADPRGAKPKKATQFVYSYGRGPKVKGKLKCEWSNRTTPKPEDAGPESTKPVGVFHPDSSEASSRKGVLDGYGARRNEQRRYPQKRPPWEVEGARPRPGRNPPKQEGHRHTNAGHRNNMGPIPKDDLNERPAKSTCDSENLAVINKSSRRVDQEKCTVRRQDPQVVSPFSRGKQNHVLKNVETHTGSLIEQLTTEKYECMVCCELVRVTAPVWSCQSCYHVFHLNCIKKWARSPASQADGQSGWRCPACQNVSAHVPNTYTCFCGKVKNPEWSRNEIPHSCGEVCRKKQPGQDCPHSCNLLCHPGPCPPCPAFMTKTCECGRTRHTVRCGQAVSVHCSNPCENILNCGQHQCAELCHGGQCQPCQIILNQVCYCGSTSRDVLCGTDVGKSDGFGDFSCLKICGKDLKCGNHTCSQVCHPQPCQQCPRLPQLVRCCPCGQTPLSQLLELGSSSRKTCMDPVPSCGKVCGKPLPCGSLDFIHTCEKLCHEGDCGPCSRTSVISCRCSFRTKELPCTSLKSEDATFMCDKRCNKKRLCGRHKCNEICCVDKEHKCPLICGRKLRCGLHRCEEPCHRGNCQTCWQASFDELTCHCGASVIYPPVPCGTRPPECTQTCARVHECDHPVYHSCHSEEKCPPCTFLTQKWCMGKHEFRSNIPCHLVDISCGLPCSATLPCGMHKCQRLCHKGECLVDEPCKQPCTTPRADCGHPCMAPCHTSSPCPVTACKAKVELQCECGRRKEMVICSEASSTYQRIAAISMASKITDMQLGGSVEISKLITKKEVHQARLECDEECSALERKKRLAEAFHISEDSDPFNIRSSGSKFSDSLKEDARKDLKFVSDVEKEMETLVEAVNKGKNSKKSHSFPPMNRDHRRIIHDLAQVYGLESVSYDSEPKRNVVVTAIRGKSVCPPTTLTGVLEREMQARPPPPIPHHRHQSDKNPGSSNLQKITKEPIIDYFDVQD
# UniProt Q96TA1: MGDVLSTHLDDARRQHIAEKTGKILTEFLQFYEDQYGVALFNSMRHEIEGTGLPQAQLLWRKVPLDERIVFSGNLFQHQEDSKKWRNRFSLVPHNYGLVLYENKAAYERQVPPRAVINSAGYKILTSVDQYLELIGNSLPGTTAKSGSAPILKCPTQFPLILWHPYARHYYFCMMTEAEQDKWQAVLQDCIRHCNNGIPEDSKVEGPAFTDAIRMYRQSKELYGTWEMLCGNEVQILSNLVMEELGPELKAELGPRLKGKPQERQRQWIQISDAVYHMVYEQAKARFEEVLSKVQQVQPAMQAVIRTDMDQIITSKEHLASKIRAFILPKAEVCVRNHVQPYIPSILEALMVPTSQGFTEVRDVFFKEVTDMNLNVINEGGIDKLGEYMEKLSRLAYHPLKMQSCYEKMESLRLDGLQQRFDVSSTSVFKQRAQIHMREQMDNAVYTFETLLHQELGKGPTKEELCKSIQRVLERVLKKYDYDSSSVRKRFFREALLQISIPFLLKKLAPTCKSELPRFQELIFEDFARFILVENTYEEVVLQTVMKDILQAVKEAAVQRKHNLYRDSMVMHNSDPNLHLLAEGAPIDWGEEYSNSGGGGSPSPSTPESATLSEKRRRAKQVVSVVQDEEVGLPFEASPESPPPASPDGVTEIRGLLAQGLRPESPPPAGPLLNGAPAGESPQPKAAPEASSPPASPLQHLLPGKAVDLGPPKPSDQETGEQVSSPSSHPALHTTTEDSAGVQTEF
# UniProt Q969S2: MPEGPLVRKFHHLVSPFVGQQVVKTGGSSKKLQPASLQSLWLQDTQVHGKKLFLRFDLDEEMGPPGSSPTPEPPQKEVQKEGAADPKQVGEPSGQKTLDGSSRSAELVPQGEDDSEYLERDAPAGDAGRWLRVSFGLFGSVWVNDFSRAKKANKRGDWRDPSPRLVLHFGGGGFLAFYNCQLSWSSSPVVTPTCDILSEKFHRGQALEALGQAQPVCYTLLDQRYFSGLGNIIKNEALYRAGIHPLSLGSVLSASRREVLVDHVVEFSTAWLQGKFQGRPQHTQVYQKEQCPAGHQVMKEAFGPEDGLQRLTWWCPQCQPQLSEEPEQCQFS
# This is one part of the list. The data scatter; read single values as rough.
# Compound: ClCC(=O)N[C@@H]1CCCc2ccccc12
# Experiment: log2 mean competition ratio of IA-DTB cysteine labelling (DMSO/compound) (log2 ratio); higher = stronger cysteine engagement by compound
# Details: 50 µM; treatment time: 4 h; cell line lysate: HEK293T
# Protocol: (§1)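 IA-DTB competitive cysteine chemoproteomics in HEK293T RIPA lysate. Lysates were treated with compound 29 or 30 at 50 or 200 µM for 4 h, then IA-DTB (500 µM, 1 h), trypsin-digested, NeutrAvidin-enriched and analysed by diaPASEF. Competition ratio = intensity DMSO / intensity compound (n=4 treated, n=64 DMSO); binding: mean log2 CR ≥ 1 and p ≤ 0.05 plus QC filters. Target is the cysteine site.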
row,Target,log2 mean competition ratio
1,NOCT C114 (UniProt Q9UK39),-0.321
2,NCAPD3 C453 (UniProt P42695),0.0268
3,NKRF C37 (UniProt O15226),0.389
4,NOP2 C463 (UniProt P46087),-0.0718
5,NIT1 C203 (UniProt Q86X76),0.374
6,NAXE C283 (UniProt Q8NCW5),0.105
7,NEMP1 C434 (UniProt O14524),0.146
8,NCAPH2 C184 (UniProt Q6IBW4),0.214
9,NCAPH C114 (UniProt Q15003),0.338
10,NCDN C491 (UniProt Q9UBB6),-0.0868
11,NAT10 C517 (UniProt Q9H0A0),-0.0329
12,NLRX1 C481 (UniProt Q86UT6),-0.0422
13,NCDN C292 (UniProt Q9UBB6),0.118
14,NIBAN1 C516 (UniProt Q9BZQ8),0.352
15,NOL6 C1034 (UniProt Q9H6R4),-0.181
16,NIF3L1 C213 (UniProt Q9GZT8),0.144
17,NFXL1 C775 (UniProt Q6ZNB6),-0.000288
18,NHSL1 C1554 (UniProt Q5SYE7),0.182
19,NOP16 C36 (UniProt Q9Y3C1),0.351

row,Target,log2 mean competition ratio
1,NEK4 C664 (UniProt P51957),-0.133
2,NCBP1 C332 (UniProt Q09161),-0.0155
3,NIPBL C1971 (UniProt Q6KC79),0.111
4,NDUFA10 C183 (UniProt O95299),-0.174
5,NLN C199 (UniProt Q9BYT8),0.0663
6,NDUFB10 C119 (UniProt O96000),0.125
7,NEK9 C260 (UniProt Q8TD19),-0.237
8,NDUFAF4 C87 (UniProt Q9P032),-0.0745
9,NCOA4 C184 (UniProt Q13772),-0.0721
10,NOL11 C333 (UniProt Q9H8H0),0.23
11,NCAPD3 C1484 (UniProt P42695),-0.0183
12,NCAPD2 C1249 (UniProt Q15021),0.28
13,NEU1 C299 (UniProt Q99519),0.0554
14,NFX1 C684 (UniProt Q12986),-0.118
15,NIPBL C1795 (UniProt Q6KC79),-0.154
16,NIFK C269 (UniProt Q9BYG3),-0.0807
17,NIBAN2 C466 (UniProt Q96TA1),0.0336
18,NEIL2 C291 (UniProt Q969S2),0.267

# Same assay, conditions: 200 µM; treatment time: 4 h; cell line lysate: HEK293T
row,Target,log2 mean competition ratio
1,NOCT C114 (UniProt Q9UK39),-0.123
2,NCAPD3 C453 (UniProt P42695),-0.0515
3,NKRF C37 (UniProt O15226),-0.265
4,NOP2 C463 (UniProt P46087),0.00349
5,NIT1 C203 (UniProt Q86X76),0.0667
6,NAXE C283 (UniProt Q8NCW5),0.0368
7,NEMP1 C434 (UniProt O14524),-0.224
8,NCAPH2 C184 (UniProt Q6IBW4),-0.179
9,NCAPH C114 (UniProt Q15003),0.00549
10,NCDN C491 (UniProt Q9UBB6),-0.129
11,NAT10 C517 (UniProt Q9H0A0),-0.416
12,NLRX1 C481 (UniProt Q86UT6),-0.0932
13,NCDN C292 (UniProt Q9UBB6),-0.00768
14,NIBAN1 C516 (UniProt Q9BZQ8),-0.24
15,NOL6 C1034 (UniProt Q9H6R4),0.473
16,NIF3L1 C213 (UniProt Q9GZT8),-0.161
17,NFXL1 C775 (UniProt Q6ZNB6),-0.12
18,NHSL1 C1554 (UniProt Q5SYE7),-0.135
19,NOP16 C36 (UniProt Q9Y3C1),-0.304

row,Target,log2 mean competition ratio
1,NEK4 C664 (UniProt P51957),0.17
2,NCBP1 C332 (UniProt Q09161),-0.0826
3,NIPBL C1971 (UniProt Q6KC79),-0.162
4,NDUFA10 C183 (UniProt O95299),0.146
5,NLN C199 (UniProt Q9BYT8),-0.00313
6,NDUFB10 C119 (UniProt O96000),0.311
7,NEK9 C260 (UniProt Q8TD19),0.131
8,NDUFAF4 C87 (UniProt Q9P032),-0.0954
9,NCOA4 C184 (UniProt Q13772),-0.0991
10,NOL11 C333 (UniProt Q9H8H0),-0.0506
11,NCAPD3 C1484 (UniProt P42695),0.305
12,NCAPD2 C1249 (UniProt Q15021),0.4
13,NEU1 C299 (UniProt Q99519),0.162
14,NFX1 C684 (UniProt Q12986),0.09
15,NIPBL C1795 (UniProt Q6KC79),0.0185
16,NIFK C269 (UniProt Q9BYG3),-0.0457
17,NIBAN2 C466 (UniProt Q96TA1),0.135
18,NEIL2 C291 (UniProt Q969S2),0.167

# Compound: ClCC(=O)N[C@H]1CCCc2ccccc12
# Experiment: as above
# Details: 50 µM; treatment time: 4 h; cell line lysate: HEK293T
# Protocol: as §1
row,Target,log2 mean competition ratio
1,NCAPD3 C453 (UniProt P42695),0.142
2,NKRF C37 (UniProt O15226),0.339
3,NOP2 C463 (UniProt P46087),-0.27
4,NIT1 C203 (UniProt Q86X76),0.381
5,NAXE C283 (UniProt Q8NCW5),0.37
6,NEMP1 C434 (UniProt O14524),0.621
7,NCAPH2 C184 (UniProt Q6IBW4),0.0829
8,NCAPH C114 (UniProt Q15003),-0.079
9,NCDN C491 (UniProt Q9UBB6),0.182
10,NAT10 C517 (UniProt Q9H0A0),0.245
11,NLRX1 C481 (UniProt Q86UT6),-0.376
12,NCDN C292 (UniProt Q9UBB6),0.174
13,NIBAN1 C516 (UniProt Q9BZQ8),0.162
14,NOL6 C1034 (UniProt Q9H6R4),0.221
15,NIF3L1 C213 (UniProt Q9GZT8),0.174
16,NFXL1 C775 (UniProt Q6ZNB6),0.213
17,NHSL1 C1554 (UniProt Q5SYE7),0.376
18,NOP16 C36 (UniProt Q9Y3C1),0.217

row,Target,log2 mean competition ratio
1,NEK4 C664 (UniProt P51957),-0.115
2,NCBP1 C332 (UniProt Q09161),-0.395
3,NIPBL C1971 (UniProt Q6KC79),0.253
4,NDUFA10 C183 (UniProt O95299),0.0576
5,NLN C199 (UniProt Q9BYT8),-0.185
6,NDUFB10 C119 (UniProt O96000),0.0177
7,NEK9 C260 (UniProt Q8TD19),-0.712
8,NDUFAF4 C87 (UniProt Q9P032),-0.134
9,NCOA4 C184 (UniProt Q13772),0.252
10,NOL11 C333 (UniProt Q9H8H0),-0.0939
11,NCAPD3 C1484 (UniProt P42695),-0.0137
12,NCAPD2 C1249 (UniProt Q15021),0.152
13,NEU1 C299 (UniProt Q99519),-0.439
14,NFX1 C684 (UniProt Q12986),-0.106
15,NIPBL C1795 (UniProt Q6KC79),-0.163
16,NIFK C269 (UniProt Q9BYG3),0.059
17,NIBAN2 C466 (UniProt Q96TA1),-0.157
18,NEIL2 C291 (UniProt Q969S2),0.0723
